Test results reported in the supplement of paper PMC10849652.
The other results are listed elsewhere or left out. Residues, ends and D or L forms follow the SMILES beside them. *: point of attachment. Cbz = O=C(OCc1ccccc1)*

Protein sequences, listed by entry. Tags and fused reporters are not part of them. Lines headed by an entry give the natural chain unless they say otherwise; changes in a name come on top.
UniProt O95336: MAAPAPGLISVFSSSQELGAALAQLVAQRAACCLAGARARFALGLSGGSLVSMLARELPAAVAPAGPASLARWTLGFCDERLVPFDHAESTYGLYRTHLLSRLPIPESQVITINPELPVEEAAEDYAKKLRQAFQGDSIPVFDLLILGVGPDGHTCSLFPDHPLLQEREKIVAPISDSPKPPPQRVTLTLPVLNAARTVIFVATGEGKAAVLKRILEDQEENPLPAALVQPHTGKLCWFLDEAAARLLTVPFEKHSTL
UniProt O00625: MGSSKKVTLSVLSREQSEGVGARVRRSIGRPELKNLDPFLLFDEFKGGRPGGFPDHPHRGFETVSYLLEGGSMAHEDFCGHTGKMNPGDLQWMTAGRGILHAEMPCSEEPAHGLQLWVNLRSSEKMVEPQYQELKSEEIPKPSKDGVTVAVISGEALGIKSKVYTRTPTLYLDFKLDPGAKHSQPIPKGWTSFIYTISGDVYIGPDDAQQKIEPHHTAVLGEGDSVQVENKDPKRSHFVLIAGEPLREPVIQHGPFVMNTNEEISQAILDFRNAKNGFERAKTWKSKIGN
UniProt Q01970, whole entry, looked up: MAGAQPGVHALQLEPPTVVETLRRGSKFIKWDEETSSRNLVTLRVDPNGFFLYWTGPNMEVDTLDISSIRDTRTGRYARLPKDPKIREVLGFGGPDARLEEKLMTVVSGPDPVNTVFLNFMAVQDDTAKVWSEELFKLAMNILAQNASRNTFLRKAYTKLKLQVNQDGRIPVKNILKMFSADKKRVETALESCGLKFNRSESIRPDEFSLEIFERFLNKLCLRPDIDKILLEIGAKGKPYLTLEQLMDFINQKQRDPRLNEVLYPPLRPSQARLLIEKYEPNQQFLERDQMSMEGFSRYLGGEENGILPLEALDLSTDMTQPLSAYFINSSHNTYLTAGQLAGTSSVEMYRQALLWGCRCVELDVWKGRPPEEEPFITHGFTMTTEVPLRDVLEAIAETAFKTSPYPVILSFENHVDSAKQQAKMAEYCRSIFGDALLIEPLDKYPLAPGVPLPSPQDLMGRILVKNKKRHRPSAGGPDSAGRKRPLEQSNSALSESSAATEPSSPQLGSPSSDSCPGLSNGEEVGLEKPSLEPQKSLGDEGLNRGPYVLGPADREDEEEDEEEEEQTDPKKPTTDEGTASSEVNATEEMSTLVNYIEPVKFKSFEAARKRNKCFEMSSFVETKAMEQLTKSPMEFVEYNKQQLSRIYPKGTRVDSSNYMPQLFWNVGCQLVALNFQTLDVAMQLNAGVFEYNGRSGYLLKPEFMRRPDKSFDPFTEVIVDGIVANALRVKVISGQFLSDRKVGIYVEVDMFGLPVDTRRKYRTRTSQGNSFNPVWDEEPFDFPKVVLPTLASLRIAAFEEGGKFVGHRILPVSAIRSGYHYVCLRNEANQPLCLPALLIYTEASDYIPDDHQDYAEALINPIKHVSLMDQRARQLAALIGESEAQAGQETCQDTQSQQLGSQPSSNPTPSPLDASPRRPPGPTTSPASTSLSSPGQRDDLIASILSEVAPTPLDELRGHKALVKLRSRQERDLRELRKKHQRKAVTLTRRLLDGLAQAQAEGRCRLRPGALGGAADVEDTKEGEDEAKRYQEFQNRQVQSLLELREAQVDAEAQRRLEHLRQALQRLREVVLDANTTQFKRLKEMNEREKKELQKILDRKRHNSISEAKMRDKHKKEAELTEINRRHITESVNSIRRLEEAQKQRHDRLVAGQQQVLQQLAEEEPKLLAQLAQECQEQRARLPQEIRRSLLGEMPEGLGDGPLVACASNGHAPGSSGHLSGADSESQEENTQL
UniProt Q8N4L2: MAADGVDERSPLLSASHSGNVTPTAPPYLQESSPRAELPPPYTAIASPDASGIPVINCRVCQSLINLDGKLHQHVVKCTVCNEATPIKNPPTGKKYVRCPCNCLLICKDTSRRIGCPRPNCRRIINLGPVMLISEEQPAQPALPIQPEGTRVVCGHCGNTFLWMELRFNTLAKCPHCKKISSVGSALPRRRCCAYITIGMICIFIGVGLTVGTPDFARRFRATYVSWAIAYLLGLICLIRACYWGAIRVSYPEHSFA
UniProt Q7RTV0, whole entry, looked up: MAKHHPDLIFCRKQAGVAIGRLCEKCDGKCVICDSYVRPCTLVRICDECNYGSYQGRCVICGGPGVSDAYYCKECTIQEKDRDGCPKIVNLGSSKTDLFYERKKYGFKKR
UniProt O00628: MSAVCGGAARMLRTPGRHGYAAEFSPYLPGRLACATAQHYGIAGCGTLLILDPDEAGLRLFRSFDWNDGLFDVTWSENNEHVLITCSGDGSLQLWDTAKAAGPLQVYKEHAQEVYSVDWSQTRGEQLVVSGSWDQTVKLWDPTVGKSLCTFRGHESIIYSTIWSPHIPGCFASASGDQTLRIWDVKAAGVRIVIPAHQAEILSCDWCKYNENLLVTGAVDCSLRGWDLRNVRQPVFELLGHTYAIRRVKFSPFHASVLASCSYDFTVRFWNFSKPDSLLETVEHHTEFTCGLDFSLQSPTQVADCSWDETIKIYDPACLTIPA
UniProt Q9Y2I7: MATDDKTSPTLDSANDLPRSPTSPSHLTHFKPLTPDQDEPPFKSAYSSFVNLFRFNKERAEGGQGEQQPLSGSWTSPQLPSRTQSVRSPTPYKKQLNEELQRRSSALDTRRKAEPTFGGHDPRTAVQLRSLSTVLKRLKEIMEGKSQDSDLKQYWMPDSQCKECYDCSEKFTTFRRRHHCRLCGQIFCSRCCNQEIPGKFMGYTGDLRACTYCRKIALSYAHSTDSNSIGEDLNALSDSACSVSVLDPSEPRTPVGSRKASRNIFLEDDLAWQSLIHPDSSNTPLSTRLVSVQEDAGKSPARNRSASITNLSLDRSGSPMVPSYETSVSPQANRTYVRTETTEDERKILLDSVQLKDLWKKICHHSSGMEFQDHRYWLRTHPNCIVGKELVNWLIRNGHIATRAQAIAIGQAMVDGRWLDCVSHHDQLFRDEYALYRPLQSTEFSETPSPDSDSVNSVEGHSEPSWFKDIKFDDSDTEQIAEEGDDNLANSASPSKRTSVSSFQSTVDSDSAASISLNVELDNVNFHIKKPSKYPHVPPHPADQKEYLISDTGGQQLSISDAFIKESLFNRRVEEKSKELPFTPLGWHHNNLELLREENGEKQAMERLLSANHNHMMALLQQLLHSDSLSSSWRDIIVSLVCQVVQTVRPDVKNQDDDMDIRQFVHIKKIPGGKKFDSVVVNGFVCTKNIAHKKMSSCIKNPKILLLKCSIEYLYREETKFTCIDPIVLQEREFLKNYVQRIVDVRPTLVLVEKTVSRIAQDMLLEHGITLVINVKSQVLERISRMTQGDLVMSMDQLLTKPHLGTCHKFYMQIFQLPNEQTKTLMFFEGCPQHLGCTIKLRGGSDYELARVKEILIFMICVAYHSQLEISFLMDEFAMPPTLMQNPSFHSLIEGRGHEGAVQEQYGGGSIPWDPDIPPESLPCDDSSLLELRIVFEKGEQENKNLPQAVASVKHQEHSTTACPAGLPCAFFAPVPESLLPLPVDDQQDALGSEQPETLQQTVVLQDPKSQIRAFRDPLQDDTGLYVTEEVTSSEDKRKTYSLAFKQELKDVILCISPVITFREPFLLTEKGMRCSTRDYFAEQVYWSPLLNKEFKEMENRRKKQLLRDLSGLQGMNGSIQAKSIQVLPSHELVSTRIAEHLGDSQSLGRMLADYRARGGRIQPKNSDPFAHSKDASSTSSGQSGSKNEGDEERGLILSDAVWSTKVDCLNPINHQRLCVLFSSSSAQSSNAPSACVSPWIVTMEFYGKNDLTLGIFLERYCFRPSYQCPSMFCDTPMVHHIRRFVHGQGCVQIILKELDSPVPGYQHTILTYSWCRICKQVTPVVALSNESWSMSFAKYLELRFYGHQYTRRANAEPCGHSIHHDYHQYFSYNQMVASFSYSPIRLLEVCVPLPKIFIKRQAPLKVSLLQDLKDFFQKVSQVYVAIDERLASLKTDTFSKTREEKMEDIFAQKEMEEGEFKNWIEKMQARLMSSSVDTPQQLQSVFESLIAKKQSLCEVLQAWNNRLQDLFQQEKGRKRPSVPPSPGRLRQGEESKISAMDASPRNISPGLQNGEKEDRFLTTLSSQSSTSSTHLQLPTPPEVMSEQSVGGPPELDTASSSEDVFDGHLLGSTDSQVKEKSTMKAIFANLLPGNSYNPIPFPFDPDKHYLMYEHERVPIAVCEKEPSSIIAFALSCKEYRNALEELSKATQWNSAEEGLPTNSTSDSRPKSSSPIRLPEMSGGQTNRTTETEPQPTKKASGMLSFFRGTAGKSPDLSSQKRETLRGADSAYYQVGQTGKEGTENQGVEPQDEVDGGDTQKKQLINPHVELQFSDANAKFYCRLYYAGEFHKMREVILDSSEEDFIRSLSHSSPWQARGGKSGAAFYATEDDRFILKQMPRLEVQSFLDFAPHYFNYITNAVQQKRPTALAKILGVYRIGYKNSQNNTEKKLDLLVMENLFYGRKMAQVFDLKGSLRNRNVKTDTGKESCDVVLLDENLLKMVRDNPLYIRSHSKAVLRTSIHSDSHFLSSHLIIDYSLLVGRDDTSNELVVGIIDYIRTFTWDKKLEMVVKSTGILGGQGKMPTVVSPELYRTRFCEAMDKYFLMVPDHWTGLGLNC
UniProt P42338: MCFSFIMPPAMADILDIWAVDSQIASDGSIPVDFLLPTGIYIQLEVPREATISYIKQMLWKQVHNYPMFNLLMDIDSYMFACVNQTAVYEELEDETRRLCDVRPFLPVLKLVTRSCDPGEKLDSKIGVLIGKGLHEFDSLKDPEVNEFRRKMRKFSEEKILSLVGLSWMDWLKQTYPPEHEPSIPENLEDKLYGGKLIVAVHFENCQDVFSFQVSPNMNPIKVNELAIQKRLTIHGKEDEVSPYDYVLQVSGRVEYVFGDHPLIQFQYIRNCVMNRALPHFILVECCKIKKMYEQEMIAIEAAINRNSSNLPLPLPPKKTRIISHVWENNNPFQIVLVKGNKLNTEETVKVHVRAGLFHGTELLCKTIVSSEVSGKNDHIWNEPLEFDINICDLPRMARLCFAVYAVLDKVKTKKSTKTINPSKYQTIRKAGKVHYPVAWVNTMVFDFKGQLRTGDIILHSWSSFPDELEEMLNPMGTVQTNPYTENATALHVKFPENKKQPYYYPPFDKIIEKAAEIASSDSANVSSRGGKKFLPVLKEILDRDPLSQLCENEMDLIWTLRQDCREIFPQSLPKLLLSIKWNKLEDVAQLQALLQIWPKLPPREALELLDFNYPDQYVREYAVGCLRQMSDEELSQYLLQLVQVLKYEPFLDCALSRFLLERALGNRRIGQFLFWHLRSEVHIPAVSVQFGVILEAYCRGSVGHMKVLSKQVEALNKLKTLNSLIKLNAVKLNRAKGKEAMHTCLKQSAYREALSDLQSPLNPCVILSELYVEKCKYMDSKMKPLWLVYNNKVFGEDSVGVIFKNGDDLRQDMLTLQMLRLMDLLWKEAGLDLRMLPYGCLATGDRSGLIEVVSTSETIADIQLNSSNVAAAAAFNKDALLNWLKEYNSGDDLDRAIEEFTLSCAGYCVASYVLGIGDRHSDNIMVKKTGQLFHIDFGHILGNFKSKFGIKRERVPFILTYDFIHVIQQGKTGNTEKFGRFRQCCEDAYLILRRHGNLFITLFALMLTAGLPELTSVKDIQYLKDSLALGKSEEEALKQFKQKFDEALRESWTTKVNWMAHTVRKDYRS
UniProt P53609, whole entry, looked up: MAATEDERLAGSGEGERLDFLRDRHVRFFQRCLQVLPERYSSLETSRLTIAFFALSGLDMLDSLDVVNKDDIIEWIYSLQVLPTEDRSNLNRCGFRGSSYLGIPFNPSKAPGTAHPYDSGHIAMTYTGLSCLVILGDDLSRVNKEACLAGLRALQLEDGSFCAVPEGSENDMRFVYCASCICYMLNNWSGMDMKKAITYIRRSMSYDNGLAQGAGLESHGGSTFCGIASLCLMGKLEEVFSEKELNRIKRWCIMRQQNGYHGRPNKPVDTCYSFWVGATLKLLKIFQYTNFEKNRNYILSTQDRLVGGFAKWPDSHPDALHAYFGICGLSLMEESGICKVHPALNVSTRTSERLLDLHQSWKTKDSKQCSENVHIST
UniProt O95394: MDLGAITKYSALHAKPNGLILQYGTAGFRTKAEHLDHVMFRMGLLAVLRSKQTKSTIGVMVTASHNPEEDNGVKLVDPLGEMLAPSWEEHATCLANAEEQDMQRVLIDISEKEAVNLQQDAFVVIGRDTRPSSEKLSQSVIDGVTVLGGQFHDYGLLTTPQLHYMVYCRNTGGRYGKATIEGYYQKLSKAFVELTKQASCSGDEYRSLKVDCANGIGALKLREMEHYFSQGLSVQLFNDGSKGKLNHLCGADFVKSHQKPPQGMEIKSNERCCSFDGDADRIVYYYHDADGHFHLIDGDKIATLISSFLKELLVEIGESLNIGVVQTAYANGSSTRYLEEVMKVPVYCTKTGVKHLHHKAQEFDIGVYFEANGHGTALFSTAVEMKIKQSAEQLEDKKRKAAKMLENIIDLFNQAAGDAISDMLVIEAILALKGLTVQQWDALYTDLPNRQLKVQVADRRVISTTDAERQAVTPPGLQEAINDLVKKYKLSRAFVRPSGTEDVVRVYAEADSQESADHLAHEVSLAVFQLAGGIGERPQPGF

Legend:
Assay in all cases: log2 fold change, soluble protein after heating vs DMSO (PISA); higher = thermal stabilisation; K562 cells, 10 uM, 30 min; active = over 0.2 and 3.5 SD of the protein, either way, in both replicates (recomputed)
IRAK-1-4 Inhibitor I = compound: C1COCCN1CCN2C3=CC=CC=C3N=C2NC(=O)C4=CC(=CC=C4)[N+](=O)[O-] [IRAK-1-4 Inhibitor I]
Method in brief: (§1)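 Thermal stability values are relative to control samples and come from duplicates. They are expressed as log2 fold changes. For measurement, K562 cells (2×10^6 cells/mL) received 10 μM compound for 30 min, and aliquots were heated for 3 min over 48°C-58°C, pooled, and extracted at 4°C in PBS with 0.5% NP-40. Soluble protein, the supernatant after 21,000xg for 90 min, was quantified by TMTpro 16plex LC-MS/MS with equalised channel sums.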

ibrutinib = compound: C=CC(=O)N1CCC[C@@H](n2nc(-c3ccc(Oc4ccccc4)cc3)c3c(N)ncnc32)C1 [ibrutinib]
Method in brief: as §1

[1] = compound: CC(=O)c1cnc2ccc(-c3cc(Cl)c(O)c(Cl)c3)nc2c1N[C@H]1CC[C@H](CN(C)C)CC1
Method in brief: as §1

ralimetinib = compound: CC(C)(C)Cn1c(N)nc2ccc(-c3[nH]c(C(C)(C)C)nc3-c3ccc(F)cc3)nc21 [ralimetinib]
Method in brief: as §1

[2] = compound: CC(C)(O)CC(=O)NCCn1ccc2ncnc(Nc3ccc(Oc4cccc(C(F)(F)F)c4)c(Cl)c3)c21
Method in brief: as §1

[3] = compound: CC(C)C1=C2N=C(C=C(N2N=C1)NCC3=CC=CC=C3)NCCCCCCN
Method in brief: as §1

[4] = compound: CC(C)C[C@@H](C=O)NC(=O)[C@H](CC(C)C)NC(=O)[C@H](CC(C)C)NC(=O)OCc1ccccc1
Method in brief: as §1

pinometostat = compound: CC(C)N(C[C@H]1O[C@@H](n2cnc3c(N)ncnc32)[C@H](O)[C@@H]1O)[C@H]1C[C@@H](CCc2nc3cc(C(C)(C)C)ccc3[nH]2)C1 [pinometostat]
Method in brief: as §1

[5] = compound: CC1=C(C(CC(=O)N1)C2=CC=C(C=C2)C(F)(F)F)C(=O)NC3=C(C=C4C(=C3)C=NN4)F
Method in brief: as §1

[6] = compound: CC1=C(C2=C(C=C1)C(=O)C3=CC=CC=C3N2CCCN)C
Method in brief: as §1

[7] = compound: CC1=C(C=C(C=C1)NC(=O)C2=CC(=CC=C2)C(C)(C)C#N)NC3=CC4=C(C=C3)N=CN(C4=O)C
Method in brief: as §1

[8] = compound: CC1=C(C=C(C=C1)NC(=O)C2=CC(=CC=C2)N(C)C)NC(=O)C3=CC=C(C=C3)O
Method in brief: as §1

[9] = compound: CC1=CC=C(C=C1)SC2=C3C=C(SC3=CN=C2)C(=O)N
Method in brief: as §1

[10] = compound: CC1=NC(=CC=C1)C2=C(N=C(N2)C(C)(C)C)C3=CC4=NC=CN=C4C=C3
Method in brief: as §1

Nexturastat A = compound: CCCCN(Cc1ccc(C(=O)NO)cc1)C(=O)Nc1ccccc1 [Nexturastat A]
Method in brief: as §1

vemurafenib = compound: CCCS(=O)(=O)Nc1ccc(F)c(C(=O)c2c[nH]c3ncc(-c4ccc(Cl)cc4)cc23)c1F [vemurafenib]
Method in brief: as §1

[11] = compound: CCCS(=O)(=O)Nc1ccc(F)c(C(=O)c2c[nH]c3ncc(Cl)cc23)c1F
Method in brief: as §1

[12] = compound: CCCc1cc(C)[nH]c(=O)c1CNC(=O)c1cc(-c2ccnc(N3CCN(C)CC3)c2)cc2c1cnn2C(C)C
Method in brief: as §1

givinostat = compound: CCN(CC)Cc1ccc2cc(COC(=O)Nc3ccc(C(=O)NO)cc3)ccc2c1 [givinostat]
Method in brief: as §1

barasertib = compound: CCN(CCCOc1ccc2c(Nc3cc(CC(=O)Nc4cccc(F)c4)[nH]n3)ncnc2c1)CCOP(=O)(O)O [barasertib]
Method in brief: as §1

Measured: log2 fold change

PGLS (UniProt O95336)
inactive: IRAK-1-4 Inhibitor I 0.016 | ibrutinib -0.015 | [1] -0.135 | ralimetinib -0.103 | [2] -0.127 | [3] 0.019 | [4] -0.112 | pinometostat -0.014 | [5] 0.061 | [6] 0.242 | [7] 0.027 | [8] -0.099 | [9] 0.059 | [10] -0.024 | Nexturastat A -0.026 | vemurafenib 0.185 | [11] -0.018 | [12] -0.016 | givinostat -0.029 | barasertib 0.074

PIR (UniProt O00625)
active: [8] 0.325
inactive: IRAK-1-4 Inhibitor I -0.016 | ibrutinib 0.019 | [1] 0.016 | ralimetinib -0.056 | [2] 0.073 | [3] 0.011 | [4] -0.042 | pinometostat -0.01 | [6] 0.037 | [7] -0.063 | [9] 0.002 | [10] -0.035 | Nexturastat A -0.053 | vemurafenib 0.03 | [11] 0.122 | [12] 0.085 | givinostat -0.146 | barasertib 0.007

PFDN1 (UniProt O60925)
inactive: IRAK-1-4 Inhibitor I -0.187 | ibrutinib -0.119 | [1] -0.002 | ralimetinib -0.141 | [2] -0.031 | [3] 0.062 | [4] -0.13 | pinometostat -0.175 | [6] 0.254 | [7] 0.039 | [8] -0.131 | [9] 0.089 | [10] 0.041 | Nexturastat A -0.071 | vemurafenib 0.172 | [11] -0.019 | [12] -0.016 | givinostat 0.004 | barasertib 0.002

PKN1 isoform 2 (UniProt Q16512)
inactive: IRAK-1-4 Inhibitor I -0.014 | ibrutinib -0.018 | ralimetinib 0.006 | [2] -0.09 | [3] -0.038 | [4] 0.002 | pinometostat 0.057 | [6] 0.047 | [7] 0.01 | [8] 0.002 | [9] 0.019 | [10] 0.014 | Nexturastat A 0.053 | vemurafenib 0.023 | [11] 0.03 | [12] 0.022 | givinostat 0.059 | barasertib 0.03
active: [1] -1.2

PLCB3 (UniProt Q01970)
inactive: IRAK-1-4 Inhibitor I -0.013 | ibrutinib -0.026 | [1] -0.017 | ralimetinib 0.014 | [2] -0.064 | [3] -0.138 | [4] -0.003 | pinometostat 0.01 | [6] 0.004 | [7] 0.033 | [8] -0.04 | [9] 0.021 | [10] 0.033 | Nexturastat A -0.019 | vemurafenib 0.024 | [11] 0.045 | [12] -0.032 | givinostat -0.014 | barasertib 0.018

PHKA2 (UniProt P46019)
inactive: IRAK-1-4 Inhibitor I 0.053 | ibrutinib -0.095 | [1] 0.049 | ralimetinib 0.011 | [2] -0.1 | [3] -0.143 | [4] 0.065 | pinometostat 0.138 | [6] 0.028 | [7] 0.028 | [8] 0 | [9] 0.028 | [10] 0.053 | Nexturastat A -0.038 | vemurafenib -0.014 | [11] 0.052 | [12] -0.07 | givinostat 0.048 | barasertib 0.057

PIP4P2 (UniProt Q8N4L2)
inactive: IRAK-1-4 Inhibitor I -0.027 | ibrutinib 0 | [1] -0.028 | ralimetinib 0.005 | [2] 0.142 | [4] 0.011 | pinometostat 0.012 | [6] 0.033 | [7] 0.107 | [8] -0.03 | [9] -0.006 | [10] -0.002 | Nexturastat A -0.092 | vemurafenib -0.013 | [11] 0.041 | [12] -0.045 | givinostat -0.067 | barasertib 0
active: [3] -0.624

PFAS (UniProt O15067)
inactive: IRAK-1-4 Inhibitor I -0.055 | ibrutinib 0.065 | [1] -0.217 | ralimetinib -0.003 | [2] 0.02 | [3] 0.131 | [4] -0.055 | pinometostat -0.02 | [6] 0.17 | [7] -0.056 | [8] -0.119 | [9] 0.172 | [10] 0.002 | Nexturastat A -0.081 | vemurafenib 0.032 | [11] -0.003 | [12] -0.039 | givinostat 0.05 | barasertib 0.061

PHF5A (UniProt Q7RTV0)
active: [3] 0.242
inactive: IRAK-1-4 Inhibitor I 0.02 | ibrutinib 0.001 | [1] 0.008 | ralimetinib 0 | [2] 0.088 | [4] -0.073 | pinometostat -0.073 | [6] 0.109 | [7] -0.019 | [8] -0.046 | [9] -0.023 | [10] -0.012 | Nexturastat A -0.017 | vemurafenib -0.075 | [11] -0.064 | [12] 0.021 | givinostat -0.075 | barasertib -0.032

PEX7 (UniProt O00628)
inactive: IRAK-1-4 Inhibitor I 0.03 | ibrutinib -0.092 | [1] -0.106 | ralimetinib -0.064 | [2] -0.057 | [3] -0.006 | [4] 0.003 | pinometostat -0.034 | [6] 0.033 | [7] 0.061 | [8] -0.011 | [9] 0.025 | [10] -0.066 | Nexturastat A -0.041 | vemurafenib -0.049 | [11] 0.007 | [12] -0.035 | givinostat -0.107 | barasertib -0.089

PLBD2 (UniProt Q8NHP8)
inactive: IRAK-1-4 Inhibitor I 0.04 | ibrutinib 0.009 | [1] 0.003 | ralimetinib -0.071 | [2] -0.01 | [3] -0.106 | [4] 0.025 | pinometostat 0.001 | [6] -0.023 | [7] -0.053 | [8] 0.058 | [9] 0.02 | [10] -0.051 | Nexturastat A -0.053 | vemurafenib -0.028 | [11] 0.001 | [12] -0.008 | givinostat 0.004 | barasertib -0.013

PIGT (UniProt Q969N2)
inactive: IRAK-1-4 Inhibitor I -0.016 | ibrutinib 0.01 | [1] -0.009 | ralimetinib 0.022 | [2] -0.067 | [3] -0.089 | [4] 0.002 | pinometostat 0.045 | [6] 0.01 | [7] -0.001 | [8] -0.005 | [9] 0.02 | [10] -0.016 | Nexturastat A 0.031 | vemurafenib -0.008 | [11] 0.009 | [12] 0.027 | givinostat -0.033 | barasertib 0.004

PIKFYVE (UniProt Q9Y2I7)
inactive: IRAK-1-4 Inhibitor I -0.032 | ibrutinib -0.097 | [1] -0.07 | ralimetinib -0.002 | [2] -0.145 | [3] -0.256 | [4] 0.063 | pinometostat 0.006 | [6] 0.012 | [7] -0.012 | [8] -0.02 | [9] 0.005 | [10] 0.006 | Nexturastat A 0.004 | vemurafenib 0.091 | [11] 0.109 | [12] -0.001 | givinostat 0.054 | barasertib 0.013

Taken from the listing (2 entries):
PFDN1 (UniProt O60925)
inactive: IRAK-1-4 Inhibitor I -0.187 | ibrutinib -0.119 | [1] -0.002 | ralimetinib -0.141 | [2] -0.031 | [3] 0.062 | [4] -0.13 | pinometostat -0.175 | [6] 0.254 | [7] 0.039 | [8] -0.131 | [9] 0.089 | [10] 0.041 | Nexturastat A -0.071 | vemurafenib 0.172 | [11] -0.019 | [12] -0.016 | givinostat 0.004 | barasertib 0.002

PKN1 isoform 2 (UniProt Q16512)
inactive: IRAK-1-4 Inhibitor I -0.014 | ibrutinib -0.018 | ralimetinib 0.006 | [2] -0.09 | [3] -0.038 | [4] 0.002 | pinometostat 0.057 | [6] 0.047 | [7] 0.01 | [8] 0.002 | [9] 0.019 | [10] 0.014 | Nexturastat A 0.053 | vemurafenib 0.023 | [11] 0.03 | [12] 0.022 | givinostat 0.059 | barasertib 0.03
active: [1] -1.2

Going on with the list.

PIK3CB (UniProt P42338)
inactive: IRAK-1-4 Inhibitor I -0.051 | ibrutinib -0.049 | [1] 0.082 | ralimetinib 0.013 | [2] -0.082 | [3] -0.082 | [4] 0.02 | pinometostat -0.069 | [6] 0.041 | [7] -0.034 | [8] -0.009 | [9] 0.024 | [10] 0.054 | Nexturastat A 0.013 | vemurafenib 0.022 | [11] -0.001 | [12] -0.041 | givinostat 0.052 | barasertib 0.077

PGGT1B (UniProt P53609)
inactive: IRAK-1-4 Inhibitor I 0.003 | ibrutinib -0.004 | [1] -0.062 | ralimetinib -0.055 | [2] 0.026 | [3] -0.019 | [4] 0.026 | pinometostat -0.03 | [6] -0.028 | [7] -0.062 | [8] 0.006 | [9] 0.002 | [10] 0.035 | Nexturastat A -0.073 | vemurafenib -0.022 | [11] -0.023 | [12] -0.025 | givinostat 0.009 | barasertib 0.035

PGM3 isoform 4 (UniProt O95394)
inactive: IRAK-1-4 Inhibitor I -0.007 | ibrutinib -0.016 | [1] -0.091 | ralimetinib 0.016 | [2] -0.08 | [3] -0.097 | [4] -0.002 | pinometostat 0.012 | [6] 0.02 | [7] 0.013 | [8] -0.073 | [9] 0.021 | [10] 0.04 | Nexturastat A -0.01 | vemurafenib 0.017 | [11] 0.04 | [12] 0.008 | givinostat -0.044 | barasertib 0.017
